In patent US12667595B2, “Composition for preventing, improving or treating benign prostatic hyperplasia or alopecia, comprising heat-killed probiotics as active ingredient” (BEREUM CO., LTD, priority 2020, dated 2026):

Test: Body weight of rat groups in the benign prostatic hyperplasia animal model
Type: in vivo, male Wister rats
Conditions: BPH rats, after four weeks of daily oral administration; mean±standard error (n=8)

CC(C)(C)NC(=O)[C@H]1CC[C@H]2[C@@H]3CC[C@H]4NC(=O)C=C[C@]4(C)[C@H]3CC[C@]12C [BPH+Fi, finasteride]
Final body weight: 296.934 ± 9.31 g
